# Results from PubChem BioAssay AID445 (National Center for Advancing Translational Sciences (NCATS), 2006).
# Some of the results follow. Shown are side measurements of this screen, not its main read-out; they come without a call. The list favours compounds with an active or inconclusive main result. Potencies come from curve fits of mixed quality, noted in brackets.
# Assay: IkB Signaling
# Conditions: ABC-DLBCL IkBa-CBG/CBR dual luciferase ratio (green luciferase fused to IkBa over red control in OCI-Ly3 lymphoma cells), 4 h
# In short: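 In this assay, an IκBα–CBG68 fusion accumulates when IKK-driven degradation is blocked; native CBR normalizes for cell number. OCI-Ly3 cells were treated 4 h with compound and doxycycline, then green and red light read after Chroma-Glo addition.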
# [1] = measured here: control luc red channel unless noted
compound,measurement,setting,value
Cc1cc(C)c2oc(-c3cccc(NC(=O)c4ccc(Br)o4)c3)nc2c1,AC50,[1],"12.6 µM [falling, partial curve]"
Cc1ccccc1Cn1cc(CCC(=O)NC(C)c2ccccc2)c2ccccc21 (stereo not drawn),AC50,[1],"1 µM [falling, partial curve, poor fit]"
CCC(C)c1ccc(OCC(=O)Nc2cccc(-c3nc4ncccc4o3)c2)cc1 (stereo not drawn),AC50,[1],"12.6 µM [falling, partial curve]"
COC(=O)c1c(C(=O)OC)c2oc3ccccc3n2c1Cl,AC50,[1],"31.6 µM [falling, single point]"
CC1=C(c2ccc(C)cc2)S(=O)(=O)N(Cc2ccc(C(=O)NCc3cccc(C)c3)cc2)C1=O,AC50,[1],"10 µM [falling, partial curve, poor fit]"
COc1cccc(-n2nnc3c(sc4nc(C)cc(C)c43)c2=O)c1,AC50,[1],"1 µM [rising, full curve]"
O=C(Nc1sc2c(c1C(=O)Nc1ccccc1Cl)CCCC2)c1ccccc1F,AC50,[1],"39.8 µM [falling, single point]"
O=C(NCc1ccccc1Br)C1CCCN(C(=O)N2CCOc3ccccc32)C1 (stereo not drawn),AC50,[1],"0.0251 µM [falling, full curve]"
COc1ccc(OCC(O)Cn2c(=N)n(Cc3ccccc3)c3ccccc32)cc1 (stereo not drawn),AC50,[1],"15.8 µM [falling, partial curve]"
Cc1ccc(NC(=O)CSc2nc(C)c(Cc3ccccc3)c(=O)[nH]2)cc1,AC50,[1],"25.1 µM [falling, single point]"
O=C(COc1ccc2c3c(c(=O)oc2c1)CCC3)NC1CCCCC1,AC50,[1],"6.31 µM [rising, single point]"
Cn1c(SCC(=O)NCc2ccc3c(c2)OCO3)nnc1-c1cc2ccccc2cc1O,AC50,[1],"25.1 µM [falling, partial curve]"
O=C(Nc1ccccc1F)c1nc(S(=O)(=O)Cc2ccccc2F)ncc1Cl,AC50,[1],"7.94 µM [falling, full curve]"
CCN(C(=O)c1noc2c1COc1ccc(C)cc1-2)c1cccc(C)c1,AC50,[1],"0.251 µM [falling, full curve]"
Clc1cccc(-n2ncc3c(NC4CCCCC4)ncnc32)c1,AC50,[1],"25.1 µM [falling, partial curve, poor fit]"
O=C(COc1ccc(Cl)cc1)NCc1nnc(SCC(=O)NCc2ccc3c(c2)OCO3)o1,AC50,[1],"7.94 µM [falling, partial curve]"
Cc1c(C(=O)Nc2ccc3c(c2)OCCO3)sc2nc(-c3ccccc3)cn12,AC50,[1],"3.16 µM [falling, full curve]"
CC(C)(C)OC(=O)N1CCC(c2c(C(=O)NCCN3CCC(Cc4ccccc4)CC3)cnn2-c2cccc(Cl)c2)CC1,AC50,[1],"39.8 µM [falling, single point]"
O=C(NCc1ccc(Cl)cc1)C(=O)NCC(c1cccs1)S(=O)(=O)c1ccc(Cl)cc1 (stereo not drawn),AC50,[1],"7.94 µM [falling, partial curve]"
CCOC(=O)C1CCN(C(=O)c2cc3ccc4cccnc4c3[nH]2)CC1,AC50,[1],"5.01 µM [falling, partial curve]"
COc1ccccc1CNC(=O)c1ccccc1NC(=O)c1nsc2ccccc12,AC50,[1],"31.6 µM [falling, partial curve]"
CCOC(=O)c1[nH]c2ccccc2c1NC(=O)c1ccccc1OCC,AC50,[1],"20 µM [falling, single point]"
O=C(Nc1ccc2c(c1)CCCN2C(=O)c1cccs1)c1cccc(C(F)(F)F)c1,AC50,[1],"31.6 µM [falling, partial curve]"
CCCCN1CC(c2nc3ccccc3n2CCCCOc2ccccc2C)CC1=O (stereo not drawn),AC50,[1],"0.794 µM [falling, full curve]"
CCCN(Cc1cccs1)C(=O)Nc1cc(C)ccc1OC,AC50,[1],"15.8 µM [falling, partial curve]"
O=C(c1ccc2c(c1)N(Cc1ccc(Cl)cc1)C(=O)c1ccccc1S2(=O)=O)N1CCCCCC1,AC50,[1],"15.8 µM [falling, partial curve]"
C=CCn1c(SCC(=O)N2CCN(c3ccc(F)cc3)CC2)nnc1-c1cccs1,AC50,[1],"12.6 µM [falling, partial curve]"
Cc1ccc(-c2onc(C)c2C)cc1S(=O)(=O)NCc1cccs1,AC50,[1],"39.8 µM [falling, single point]"
CCc1nn(CC(=O)Nc2ccc(C)c(F)c2)c(=O)c2cc3cc(C)ccc3n12,AC50,[1],"0.794 µM [rising, full curve]"
Cc1ccc(N2C(=O)C(CC(=O)Nc3ccc(F)cc3)N(CCC3=CCCCC3)C2=O)cc1 (stereo not drawn),AC50,[1],"25.1 µM [falling, partial curve]"
CCOc1ccc(-c2nnc(SCC(=O)Nc3ccccc3C(F)(F)F)o2)cc1,AC50,[1],"0.00794 µM [rising, full curve, poor fit]"
CCCNC(=O)c1ccc2c(c1)ncn2-c1ccccc1OC,AC50,[1],"15.8 µM [falling, partial curve]"
COc1ccc(C2C(C#N)=C(N)Oc3n[nH]c(C)c32)cc1Cn1nnc2ccccc21 (stereo not drawn),AC50,[1],"25.1 µM [falling, single point]"
CCc1nc2ccccc2c(C(=O)OCC(=O)Nc2ccc(S(=O)(=O)N3CCOCC3)cc2)c1C,AC50,[1],"15.8 µM [falling, partial curve]"
Cc1cc(C)c(S(=O)(=O)Nc2ccc3oc4c(c3c2)CCCC4)cc1C,AC50,[1],"12.6 µM [falling, partial curve]"
CC(CNC(=O)CCn1c(=O)c2cccn2c2ccc(F)cc21)c1ccccc1 (stereo not drawn),AC50,[1],"7.94 µM [falling, partial curve]"
COc1ccc(C(=O)c2ccc(N(C)C)cc2)c(OC)c1,AC50,[1],"0.398 µM [falling, partial curve]"
CC1(C)O[C@@H]2C[C@H]3[C@H]4C[C@H](F)C5=CC(=O)CC[C@]5(C)[C@@H]4[C@H](O)C[C@]3(C)[C@]2(C(=O)CO)O1,AC50,[1],"2.51 nM [rising, full curve, poor fit] [measured here: IkB-luc green channel]"
COc1ccc(CCNC(=O)C2CC(=O)N(CCc3ccccc3)C2)cc1OC (stereo not drawn),AC50,[1],"7.94 µM [rising, single point]"
CCCOc1ccc(C2c3c(oc4ccccc4c3=O)C(=O)N2c2ccc(C)cn2)cc1OCC (stereo not drawn),AC50,[1],"0.158 µM [rising, full curve]"
CCOC(=O)c1ccc(CN(Cc2ccc(F)cc2)S(=O)(=O)c2ccc(F)cc2)cc1,AC50,[1],"1.58 µM [falling, partial curve]"
O=C(Nc1ccc(C(F)(F)F)cc1)c1cc(S(=O)(=O)NC2CCCCCC2)ccc1F,AC50,[1],"20 µM [falling, partial curve]"
Cc1ccc(C)c(NC(=O)Nc2nnc(N(CC(C)C)CC(C)C)s2)c1,AC50,[1],"25.1 µM [falling, single point]"
CCOc1cccc2sc(NC(=O)c3ccc(S(=O)(=O)N4CCCc5ccccc54)cc3)nc12,AC50,[1],"3.16 µM [falling, full curve]"
Cc1ccccc1S(=O)Cc1ccc(C(=O)NC2CCCCCC2)o1 (stereo not drawn),AC50,[1],"12.6 µM [falling, partial curve]"
O=C(CNS(=O)(=O)c1cccs1)N1CCN(c2ccccc2Cl)CC1,AC50,[1],"3.98 µM [rising, partial curve]"
O=C(Cn1cc(SCc2cccc(F)c2)c2ccccc21)N1CCCC1,AC50,[1],"25.1 µM [falling, single point]"
Cc1ccc2c(CNCc3cccc(Cl)c3)c(C(=O)O)n(Cc3ccc(F)cc3Cl)c2c1,AC50,[1],"39.8 µM [falling, single point]"
COc1ccc(CCNc2oc(COc3ccc(Br)cc3)nc2C#N)cc1OC,AC50,measured here: IkB-luc green channel,"10 µM [falling, partial curve]"
same,AC50,measured here: control luc red channel,"7.94 µM [falling, full curve]"
COc1cc(OC)c(NS(=O)(=O)c2cc3c(cc2C)NC(=O)CO3)cc1Cl,AC50,[1],"31.6 µM [falling, single point]"
O=C(Nc1nc2c(s1)CCCC2)c1ccc2ncsc2c1,AC50,[1],"7.94 µM [falling, partial curve]"
CC(=O)c1ccc(N2CCN(C(=O)C3CCN(S(=O)(=O)c4ccc(Br)s4)CC3)CC2)cc1,AC50,[1],"12.6 µM [falling, partial curve]"
Cc1ccc(NC(=O)c2nc(S(C)(=O)=O)ncc2N(Cc2ccco2)Cc2ccccc2F)c(C)c1,AC50,[1],"15.8 µM [falling, single point]"
CCN(Cc1ccccc1)C(=O)CCS(=O)(=O)c1cc2c(cc1Cl)NC(=O)CO2,AC50,[1],"1 µM [falling, partial curve, poor fit]"
O=C(Nc1ccccc1)Nc1ccccc1C(=O)NCc1ccco1,AC50,[1],"12.6 µM [falling, partial curve]"
CC(=O)N1CCN(c2ccc(Nc3ncnc4c3oc3ccccc34)cc2)CC1,AC50,[1],"10 µM [falling, partial curve]"
Cc1ccc(CNC(=O)c2nnn(-c3cccc(C)c3)c2N)cc1,AC50,[1],"5.01 µM [falling, partial curve]"
COCCNC(=O)Cn1nc(-c2ccccc2)c2ccccc2c1=O,AC50,[1],"6.31 µM [falling, single point]"
COc1cc(NC(=O)CN2C(=O)CCc3cc(Br)ccc32)cc(OC)c1OC,AC50,[1],"20 µM [falling, partial curve]"
Cc1cccc(-c2noc(-c3cc(C(C)C)[nH]n3)n2)c1,AC50,[1],"12.6 µM [falling, partial curve]"
CC(=O)N1c2ccccc2C(=O)C1N1CCN(c2cccc(Cl)c2)CC1 (stereo not drawn),AC50,[1],"39.8 µM [falling, partial curve]"
Cc1cc2cc(CN(Cc3ccc4c(c3)OCO4)Cc3nnnn3C3CCCC3)c(=O)[nH]c2cc1C,AC50,[1],"15.8 µM [falling, partial curve]"

# Retrieved one by one from above (3):
compound,measurement,setting,value
O=C(CNS(=O)(=O)c1cccs1)N1CCN(c2ccccc2Cl)CC1,AC50,[1],"3.98 µM [rising, partial curve]"
CC1=C(c2ccc(C)cc2)S(=O)(=O)N(Cc2ccc(C(=O)NCc3cccc(C)c3)cc2)C1=O,AC50,[1],"10 µM [falling, partial curve, poor fit]"
Cc1ccc(CNC(=O)c2nnn(-c3cccc(C)c3)c2N)cc1,AC50,[1],"5.01 µM [falling, partial curve]"
